# Data published in PMC10394066, “Polymorphic amyloid nanostructures of hormone peptides involved in glucose homeostasis display reversible amyloid formation” (Nature Communications, 2023).
# Results are given in words; binding and its absence hold for the method and conditions named. For part of these data: Where a sequence is shown, tags or fusion partners need not be part of it.
# B1: APR^Tc5b hexapeptide LYIQWL (synthetic exendin-like APR of the de novo designed Tc5b and E19) (peptide)
# peptide: LYIQWL
# notes: hexapeptide segment of the de novo designed Trp-cage exendin derivatives Tc5b and E19; non-natural, no acidic side chain; also called LYIQWL (Tc5b, E19); source: synthetic peptide (flow solid-phase synthesis, Fmoc/tBu; RP-HPLC purified)
# B2: APR^GLP2 hexapeptide DFINWL (aggregation-prone region of glucagon-like peptide 2) (peptide)
# peptide: DFINWL
# notes: aggregation-prone hexapeptide segment of human glucagon-like peptide 2 (GLP-2); free termini (no terminal protection); also called DFINWL (GLP-2); source: synthetic peptide (flow solid-phase synthesis, Fmoc/tBu; RP-HPLC purified)
# B3: Ac-EFIAWL (N-terminally acetylated APR^GLP1) (peptide)
# peptide: EFIAWL
# modifications: N-terminal acetyl
# B4: APR^GLP1 hexapeptide EFIAWL (aggregation-prone region of glucagon-like peptide 1) (peptide)
# peptide: EFIAWL
# notes: aggregation-prone hexapeptide segment of human glucagon-like peptide 1 (GLP-1); source: synthetic peptide (flow solid-phase synthesis, Fmoc/tBu; RP-HPLC purified)
# Experiments:
# [1] = target: APR^Tc5b hexapeptide LYIQWL (synthetic exendin-like APR of the de novo designed Tc5b and E19); experiment: far-UV CD; pH scan of APR^Tc5b, pH below 2 and above 11; fibrils also brought to extreme pH; both purified
# [2] = target: APR^GLP2 hexapeptide DFINWL (aggregation-prone region of glucagon-like peptide 2) (human); experiment: condition: only pH shifted from acidic to a neutral (physiological) value; far-UV CD + other: FTIR; matured amyloid samples (acidic pH, FTIR samples 24 h at pH 4.2, 37 °C) reset to neutral pH (7.2); reversibility measurement; both purified
# [3] = target: APR^GLP2 hexapeptide DFINWL (aggregation-prone region of glucagon-like peptide 2) (human); experiment: far-UV CD; 0.15–0.20 mM peptide in distilled water, physiological pH and above (above pH 5), stirred 500–600 rpm at 37 °C, measured at 25 °C for up to weeks; both purified
# [4] = target: Ac-EFIAWL (N-terminally acetylated APR^GLP1) (human); experiment: as above
# [5] = target: APR^GLP1 hexapeptide EFIAWL (aggregation-prone region of glucagon-like peptide 1) (human); experiment: condition: only pH shifted from acidic to a neutral (physiological) value; far-UV CD + other: FTIR; matured amyloid samples (acidic pH, FTIR samples 24 h at pH 4.2, 37 °C) reset to neutral pH (7.2); reversibility measurement; both purified
# [6] = target: APR^GLP1 hexapeptide EFIAWL (aggregation-prone region of glucagon-like peptide 1) (human); experiment: far-UV CD; 0.15–0.20 mM peptide in distilled water, physiological pH and above (above pH 5), stirred 500–600 rpm at 37 °C, measured at 25 °C for up to weeks; both purified
binder,measurement,setting,value
B1,binding,[1],no binding (condition: pH below 2 and above 11)
B2,binding,[2],no binding
same,binding,[3],no binding (condition: above pH = 5)
B3,binding,[4],no binding (condition: above pH = 5)
B4,binding,[5],no binding
same,binding,[6],no binding (condition: above pH = 5)
